Reference: patent US20220160751A1, “METHODS OF TREATMENT OF DISEASES AND DISORDERS ASSOCIATED WITH INCREASED TET LEVEL, INCREASED H19 LEVEL, INCREASED LEVEL OF TGF SIGNALING, OR ANY COMBINATION THEREOF” (YALE UNIVERSITY, priority 2019, published 2022)
At least one structure is not confirmed: it was looked up by name or label, or the drawing left a doubt.

System: UtLM and ht-UtLM leiomyoma cells
Assay: RT-qPCR and Western blot of gene expression in leiomyoma cells
Format: cell-based, human
Conditions: 24 h, 10^−8M
Text: Antibodies for TET3 (GeneTex, GTX121453; used at a dilution of 1/500), TGFBR2 (Abcam, ab184948; used at a dilution of 1/1000), TSP1 (Abcam, ab85762; used at a dilution of 1/500), MED12 (Novus Biological, NB100-2357; used at a dilution of 1/500), HMGA2 (Proteintech, 20795-1-AP; used at a dilution of 1/500), GRAF1 (Cell Signaling, 8802; used at a dilution of 1/500), SPARC (Cell Signaling, 8725; used at a dilution of 1/500), COL3A1 (LS-Bio, LS-C159386; used at a dilution of 1/1000), COL4A1 (LS-Bio, LS-C100552; used at a dilution of 1/500), COL5A2 (Origene, TA809611; used at a dilution of 1/500) and GAPDH (Abcam, ab128915; used at a dilution of 1/10000) were purchased. Human H19 siRNA (siH19) and control siRNA (siCon) were previously described (Ghazal S et al., 2015, EMBO Mol Med 7:996-1003). siTET3 (Ambion, 4392420/s47239), estradiol ([…], Sigma), and progesterone ([…], Sigma) were purchased. […] RNA, genomic DNA, and protein were extracted and analyzed at the indicated time points following transfection.

Question: Which H19 expression does the source give for `C[C@]12CC[C@@H]3c4ccc(O)cc4CC[C@H]3[C@@H]1CC[C@@H]2O` [estradiol] here?
Answer: did not affect H19 expression
